Source: PMC11186368

By UniProt entry, the sequences of proteins in these tests, tags left out.
UniProt P27816: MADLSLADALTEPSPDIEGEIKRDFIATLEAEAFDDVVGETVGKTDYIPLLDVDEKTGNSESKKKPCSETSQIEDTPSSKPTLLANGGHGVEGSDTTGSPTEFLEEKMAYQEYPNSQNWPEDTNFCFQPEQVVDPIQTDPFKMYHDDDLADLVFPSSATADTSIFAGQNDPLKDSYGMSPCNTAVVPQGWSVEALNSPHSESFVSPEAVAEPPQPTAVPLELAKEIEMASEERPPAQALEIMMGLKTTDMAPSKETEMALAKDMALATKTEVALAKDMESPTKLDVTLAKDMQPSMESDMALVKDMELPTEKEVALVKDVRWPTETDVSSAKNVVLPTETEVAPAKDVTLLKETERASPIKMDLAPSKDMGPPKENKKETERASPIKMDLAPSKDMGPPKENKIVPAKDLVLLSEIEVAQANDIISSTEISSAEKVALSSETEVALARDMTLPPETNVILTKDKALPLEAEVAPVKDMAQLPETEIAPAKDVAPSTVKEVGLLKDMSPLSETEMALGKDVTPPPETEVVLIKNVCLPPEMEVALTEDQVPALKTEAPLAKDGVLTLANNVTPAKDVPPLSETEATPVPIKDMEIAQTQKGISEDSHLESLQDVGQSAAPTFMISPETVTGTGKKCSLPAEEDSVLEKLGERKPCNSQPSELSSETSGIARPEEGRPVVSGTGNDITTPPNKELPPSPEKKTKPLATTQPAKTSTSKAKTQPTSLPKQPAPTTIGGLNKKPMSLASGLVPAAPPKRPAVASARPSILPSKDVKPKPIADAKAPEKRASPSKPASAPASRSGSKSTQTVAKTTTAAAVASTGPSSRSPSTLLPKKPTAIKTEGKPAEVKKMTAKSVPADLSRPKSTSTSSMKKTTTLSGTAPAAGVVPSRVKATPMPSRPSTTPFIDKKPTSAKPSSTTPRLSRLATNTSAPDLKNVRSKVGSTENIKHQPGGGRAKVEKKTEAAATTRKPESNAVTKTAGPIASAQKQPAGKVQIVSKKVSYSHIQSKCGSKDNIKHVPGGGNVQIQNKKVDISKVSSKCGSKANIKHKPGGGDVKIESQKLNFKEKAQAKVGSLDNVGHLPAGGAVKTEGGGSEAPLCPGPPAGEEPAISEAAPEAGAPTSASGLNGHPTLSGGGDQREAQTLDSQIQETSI
UniProt Q96JE9: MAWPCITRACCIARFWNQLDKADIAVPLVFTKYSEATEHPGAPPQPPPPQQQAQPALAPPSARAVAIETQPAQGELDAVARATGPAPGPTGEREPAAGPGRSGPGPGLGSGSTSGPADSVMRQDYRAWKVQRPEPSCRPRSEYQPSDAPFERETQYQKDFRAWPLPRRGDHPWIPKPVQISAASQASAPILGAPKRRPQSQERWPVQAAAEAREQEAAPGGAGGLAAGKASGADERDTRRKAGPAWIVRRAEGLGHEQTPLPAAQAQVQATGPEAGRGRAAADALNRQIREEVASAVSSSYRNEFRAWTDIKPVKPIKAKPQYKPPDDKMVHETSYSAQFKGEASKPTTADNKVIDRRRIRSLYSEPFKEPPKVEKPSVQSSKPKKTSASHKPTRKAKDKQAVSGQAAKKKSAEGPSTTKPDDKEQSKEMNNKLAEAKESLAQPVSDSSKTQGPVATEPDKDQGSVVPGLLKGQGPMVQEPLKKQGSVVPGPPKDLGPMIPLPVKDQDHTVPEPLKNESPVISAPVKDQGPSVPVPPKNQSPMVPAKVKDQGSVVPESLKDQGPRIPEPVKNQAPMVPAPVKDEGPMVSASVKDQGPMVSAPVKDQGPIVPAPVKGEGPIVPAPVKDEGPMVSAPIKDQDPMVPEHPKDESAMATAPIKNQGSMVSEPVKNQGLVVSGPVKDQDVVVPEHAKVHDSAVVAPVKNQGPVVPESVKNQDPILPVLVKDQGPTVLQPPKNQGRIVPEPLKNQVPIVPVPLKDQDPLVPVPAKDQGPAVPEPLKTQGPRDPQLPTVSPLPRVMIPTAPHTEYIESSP
UniProt P53350: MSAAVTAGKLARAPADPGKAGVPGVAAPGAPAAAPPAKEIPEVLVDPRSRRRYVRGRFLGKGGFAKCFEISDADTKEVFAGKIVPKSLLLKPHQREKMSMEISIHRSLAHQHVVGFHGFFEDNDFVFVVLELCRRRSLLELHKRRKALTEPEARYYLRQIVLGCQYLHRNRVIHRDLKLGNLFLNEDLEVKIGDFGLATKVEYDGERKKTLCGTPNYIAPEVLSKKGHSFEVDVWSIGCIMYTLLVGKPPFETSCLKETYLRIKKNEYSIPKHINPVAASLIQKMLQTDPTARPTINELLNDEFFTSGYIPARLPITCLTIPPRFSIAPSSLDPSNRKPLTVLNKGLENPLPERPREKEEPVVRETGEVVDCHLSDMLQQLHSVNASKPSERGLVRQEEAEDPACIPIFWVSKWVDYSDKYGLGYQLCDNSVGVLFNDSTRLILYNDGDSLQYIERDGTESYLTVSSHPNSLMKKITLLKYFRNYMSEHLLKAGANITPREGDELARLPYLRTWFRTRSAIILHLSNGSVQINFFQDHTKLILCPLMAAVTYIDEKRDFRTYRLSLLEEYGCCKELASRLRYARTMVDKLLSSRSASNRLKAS

What follows are substances tested against T1, CYR61, bait of the tandem affinity purification for mass spectrometry (human) (UniProt O00622) (assay: affinity purification with mass spectrometry; tandem affinity purification of CYR61; CYR61 Co-IP samples digested with trypsin, Orbitrap Fusion; cells not given).
T1 sequence: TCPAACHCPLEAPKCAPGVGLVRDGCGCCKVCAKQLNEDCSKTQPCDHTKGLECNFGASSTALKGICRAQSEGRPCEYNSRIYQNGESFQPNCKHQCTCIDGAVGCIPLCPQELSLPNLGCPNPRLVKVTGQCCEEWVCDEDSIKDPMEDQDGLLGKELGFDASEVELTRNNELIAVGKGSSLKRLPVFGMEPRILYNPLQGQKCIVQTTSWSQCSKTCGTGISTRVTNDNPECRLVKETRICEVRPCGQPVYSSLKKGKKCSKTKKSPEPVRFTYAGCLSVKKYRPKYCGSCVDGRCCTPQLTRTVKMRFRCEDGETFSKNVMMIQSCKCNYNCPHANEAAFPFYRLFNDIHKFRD

| binding | Substance |
| --- | --- |
| binds | MAP4 (from UniProt P27816 1-1152) |
| binds | MAP6 (from UniProt Q96JE9 1-813) |
| binds | PLK1, endogenous (from UniProt P53350 1-603) (enzyme) |

Results are given in words; binding and its absence hold for the method and conditions named. Binding seen in cells or lysates may run through a third protein. These calls come from enrichment with a bait or labelling near it, and not all partners need be listed.
